These are yes or no findings as the source states them, for the method shown. Binding can be weak; no strength is given.
Experiments:
[1] = biological target: T1, TGF-β2 K25R I92V K94R (UniProt P61812); assay: SPR, receptor injected over immobilised TGF-β2 K25R I92V K94R
T1 sequence (looked up): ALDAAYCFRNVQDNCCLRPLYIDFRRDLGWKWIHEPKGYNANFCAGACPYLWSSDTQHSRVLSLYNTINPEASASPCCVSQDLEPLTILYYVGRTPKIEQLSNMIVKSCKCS

[2] = biological target: T1, TGF-β2 K25R I92V K94R; assay: SPR, TβRII injected over immobilised TGF-β2 K25R I92V K94R with or without 800 nM TβRIIIE

binding [1]: binds
binding [2]: binds
Substance: TGF-β type III receptor endoglin-like domain

From patent USRE49280
